Laboratory results taken from PubChem BioAssay AID252 (DTP/NCI, 2004).
The list does not hold the whole screen: it gathers some chemical classes. Not every dose and run of a compound is shown. T/C gives the treated animals as a percentage of the vehicle group. Where survival is the endpoint, this PubChem deposit counts one and a half times the control or more as active, and values a quarter to a half above the control carry no call in these data; other NCI protocols may use other cut-offs. Some T/C values are marked as having no survivor count here; that says nothing about deaths at the dose. Schedules are NCI's codes, taken here to give the interval after Q, in days (D) or hours (H), and the number of doses after X. Some schedules carry Z or #; the key to these is not given.

Tested on: BDF1 mice, intracerebral L1210 leukemia, survival T/C
Experiment: NCI In Vivo Anticancer Drug Screen. Data for tumor model L1210 Leukemia (intracerebral) in B6D2F1 (BDF1) mice
Conditions: T/C endpoint: mean survival time, higher T/C = longer survival
Method: The antitumor activity of compounds was measured in mice bearing transplantable tumors. Survival or tumor size were measured and the results are expressed as the measurement made in the treated group (T) divided by the measurement made in the vehicle treated control group (C). The tumor model used in this assay is L1210 Leukemia (intracerebral) in B6D2F1 (BDF1) mice

CC1(C)NC(=O)N(CCN(CCCl)CCCl)C1=O
T/C (dose: 0.78 mg/kg/injection, schedule: Q01DX009 (ip), vehicle: Klucel (hydroxypropylcellulose) (HPC)): 101 % of control [survivor count not shown]
T/C (dose: 0.78 mg/kg/injection, schedule: Q04DX003 (ip), vehicle: saline): 100 % of control [survivor count not shown]
T/C (dose: 1.56 mg/kg/injection, schedule: Q01DX009 (ip), vehicle: Klucel (hydroxypropylcellulose) (HPC)): 89 % of control [survivor count not shown]
T/C (dose: 1.56 mg/kg/injection, schedule: Q04DX003 (ip), vehicle: saline): 101 % of control [survivor count not shown]
T/C (dose: 3.12 mg/kg/injection, schedule: Q01DX009 (ip), vehicle: Klucel (hydroxypropylcellulose) (HPC)): 101 % of control [survivor count not shown]
T/C (dose: 3.12 mg/kg/injection, schedule: Q04DX003 (ip), vehicle: saline): 101 % of control [survivor count not shown]
T/C (dose: 6.25 mg/kg/injection, schedule: Q04DX003 (ip), vehicle: saline): 108 % of control [survivor count not shown]
T/C (dose: 12.5 mg/kg/injection, schedule: Q04DX003 (ip), vehicle: saline): 106 % of control [survivor count not shown]

CCC1(CC)NC(=O)N(CCN(CCCl)CCCl)C1=O
T/C (dose: 1.0 mg/kg/injection, schedule: Q01DX009 (ip), vehicle: saline): 101 % of control [survivor count not shown]
T/C (dose: 1.0 mg/kg/injection, schedule: Q04DX003 (ip), vehicle: saline): 101 % of control [survivor count not shown]
T/C (dose: 2.0 mg/kg/injection, schedule: Q01DX009 (ip), vehicle: saline): 101 % of control [survivor count not shown]
T/C (dose: 2.0 mg/kg/injection, schedule: Q04DX003 (ip), vehicle: saline): 97 % of control [survivor count not shown]
T/C (dose: 4.0 mg/kg/injection, schedule: Q01DX009 (ip), vehicle: saline): 111 % of control [survivor count not shown]
T/C (dose: 4.0 mg/kg/injection, schedule: Q04DX003 (ip), vehicle: saline): 105 % of control [survivor count not shown]
T/C (dose: 8.0 mg/kg/injection, schedule: Q01DX009 (ip), vehicle: saline): 103 % of control [survivor count not shown]
T/C (dose: 8.0 mg/kg/injection, schedule: Q04DX003 (ip), vehicle: saline): 108 % of control [survivor count not shown]
T/C (dose: 16.0 mg/kg/injection, schedule: Q04DX003 (ip), vehicle: saline): 94 % of control [survivor count not shown]

NS(=O)(=O)c1ccc(N(CCBr)CCBr)cc1
T/C (dose: 101.5 mg/kg/injection, schedule: Q01DX005 (ip), vehicle: carboxymethylcellulose (CMC)): 101 % of control [survivor count not shown]
T/C (dose: 203.0 mg/kg/injection, schedule: Q01DX005 (ip), vehicle: carboxymethylcellulose (CMC)): 96 % of control [survivor count not shown]

NC(Cc1ccccc1N(CCCl)CCCl)C(=O)O (stereo unspecified)
T/C (dose: 1.0 mg/kg/injection, schedule: Q01DX Z (ip), vehicle: carboxymethylcellulose (CMC)): 109 % of control [survivor count not shown]
T/C (dose: 2.0 mg/kg/injection, schedule: Q01DX Z (ip), vehicle: carboxymethylcellulose (CMC)): 125 % of control [survivor count not shown]
T/C (dose: 3.0 mg/kg/injection, schedule: Q01DX Z (ip), vehicle: carboxymethylcellulose (CMC)): 114 % of control [survivor count not shown]
T/C (dose: 4.0 mg/kg/injection, schedule: Q01DX Z (ip), vehicle: carboxymethylcellulose (CMC)): 88 % of control [survivor count not shown]

COC1OC(CN(CCCl)CCCl)C2OC(C)(C)OC12 (stereo unspecified)
T/C (dose: 1.5 mg/kg/injection, schedule: Q04DX003 (ip), vehicle: saline): 108 % of control [survivor count not shown]
T/C (dose: 3.0 mg/kg/injection, schedule: Q04DX003 (ip), vehicle: saline): 103 % of control [survivor count not shown]
T/C (dose: 6.0 mg/kg/injection, schedule: Q04DX003 (ip), vehicle: saline): 92 % of control [survivor count not shown]
